# Among all 320,000 compounds or so, about 2,100 (0.66%) were called active. The inconclusive results got no clear call from the source; some entries with a clear call stand among them for comparison. Calls come from the whole dose curve; as a rule, active = well fitted inhibition curve with a large enough effect in the signal ratio, with a control signal flat (not every such curve was filed as active); inconclusive = small, poorly fitted or top-dose-only effect, or effect the other way, or a change in a side signal; inactive = flat fitted curve, though single readings scatter; the % refers to the signal ratio. Potencies beside an inconclusive call are fits to weak or partial responses and may not hold up.
# Assay: qHTS Assay for Lipid Storage Modulators in Drosophila S3 Cells
# Conditions: BODIPY lipid droplet fluorescence, 18-24 h, cells fed with added oleic acid; lipid storage change, negative = inhibition: at 46.1 µM (top of the series) unless noted
# How it was run: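 Drosophila S3 cells loaded with oleic acid (400 uM, as added) and compounds at several concentrations; lipid droplets imaged by 488-nm laser-scanning cytometry, 500–530 nm intensity and object ratio to cell channel. Percent activity normalized to 20 uM Triacsin C.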
# % is set by controls: 0 for no effect and ±100 for the full control effect; potency is the fitted concentration of half-maximal effect.
SMILES,Potency,"lipid storage change, negative = inhibition"
O=C(NCCCl)C1Cc2c(ccc3ccccc23)O1 (stereo not drawn),"inconclusive: 3.66 µM [falling, single point]",
O=C(N/N=C/c1c[nH]c2ccccc12)c1ccccc1Cl,,inconclusive: -68.5%
Cc1ccc(F)c(NC(=O)c2cncn2-c2ccccc2)c1,"inconclusive: 7.31 µM [activator, partial curve]",
Cc1ccc(-n2[nH]c(C)c(C=Nc3ccc(C)cn3)c2=O)cc1,,inconclusive: 24.1%
Cc1cc(C)c2ccc(C(=O)O)nc2c1O,,inconclusive: 30.4%
Cc1ccnc(SCC(N)=O)n1,"inconclusive: 20.6 µM [cytotoxic, partial curve, poor fit]",
COc1ccc(NC(=S)NCCc2ccccc2OC)c(OC)c1,"inconclusive: 1.84 µM [activator, partial curve]",
O=C(O)CCCCCCC1C(=O)NC(=O)N1CCC(O)C1CCCCC1 (stereo not drawn),,inconclusive: -8.67%
Cc1ccc(-n2nnnc2SC(C)C(N)=O)c(C)c1 (stereo not drawn),,inconclusive: 14.5%
CCN(Cc1ccccc1)C(=O)CCS(=O)(=O)c1ccc2c(c1)CCN2C(C)=O,,inconclusive: 11.2%
Nc1c(C(=O)CSc2n[nH]c(-c3ccccc3)n2)c(=O)[nH]c(=O)n1C1CC1,,inconclusive
Cn1cnnc1SCC(=O)N/N=C/c1ccc(OCC(N)=O)cc1,,inconclusive: -29.1%
Cc1ccc(C(=O)O)cc1NC(=S)NC(=O)c1ccc(-c2ccc(Cl)cc2)o1,,inconclusive: 12.4%
CCc1nc2ccccc2n1Cc1ccccc1F,"inconclusive: 29.1 µM [falling, single point]",
COc1cc(C(=O)OCC(=O)Nc2ccc(C)cc2)cc(OC)c1OC,,inconclusive: 16.5%
COc1ccc(O)c(C(=O)c2cnc3c(c2)c(-c2ccc(F)cc2)c(C#N)c(=O)n3C)c1,,inconclusive: 2.07%
COc1ccc(C2=NOC(C(=O)Nc3cccnc3Cl)C2)cc1 (stereo not drawn),,inconclusive: 22.3% [at 9.22 µM]
O=C(CN1C(=O)NC2(CCCC2)C1=O)c1ccc(Cl)s1,,inconclusive
O=C(NC1CCCCC1)c1ccc(Br)o1,,inconclusive: 7.37%
O=C1CC(N2CCN(c3ccc(S(=O)(=O)N4CCOCC4)cc3)CC2)C(=O)N1Cc1ccccc1 (stereo not drawn),,inconclusive: 2.74%
CN(CC(=O)Nc1ccc(F)cc1)CC(=O)Nc1ccc(Cl)c(S(=O)(=O)N2CCOCC2)c1,,inconclusive: 14.2%
O=C(Nc1cccnc1)c1cn(-c2ccccc2)nc1-c1cccs1,"inconclusive: 5.8 µM [activator, full curve]",
CCOC(=O)C1(c2ccccc2)NC(c2ccccc2C)C2C(=O)N(c3ccc4c(c3)OCO4)C(=O)C21 (stereo not drawn),,inconclusive: 9.1%
NS(=O)(=O)c1ccc(Nc2nc(-c3ccc(O)cc3)cs2)cc1,,inconclusive: 67%
COc1cc(C(=O)NC2(C(F)(F)F)NC(=O)N(CCCc3ccccc3)C2=O)cc(OC)c1OC (stereo not drawn),,inconclusive: 6.82%
OCCN1CCN(Cc2cc(Cl)c3cccnc3c2O)CC1,,inconclusive: -2.23%

SMILES,Potency,"lipid storage change, negative = inhibition"
CC(=O)N(C)c1ccc(NC(=O)c2ccco2)cc1,,inactive: -5.89%
FCCCOc1ccc(-c2nccc(-c3ccccn3)n2)cc1,,inconclusive: 20.5%
Cc1ccc(-c2cn(C[C@H]3CC[C@@H]([C@@H]4CC[C@H](Cn5cc(-c6ccc(C)cc6)nn5)O4)O3)nn2)cc1,"inconclusive: 18.4 µM [falling, single point]",
O=C(c1ccc(S(=O)(=O)N2CCOCC2)cc1)N(c1cccc(Cl)c1)C1C=CS(=O)(=O)C1 (stereo not drawn),,inconclusive: 5.94%
Cn1c(Cn2nnc3ccccc32)nnc1SCC(=O)N1CCc2ccccc21,,inconclusive: 12.5%
Cc1ccc(-c2cc(C(F)F)nc(NCC3CCCO3)n2)cc1 (stereo not drawn),,inconclusive: -17.2%
CC(C)CNC(=O)/C=C/C(=O)O,,inconclusive: -2.01%
CCOc1ncccc1C(=O)Nc1cccc(C(=O)Nc2cccc(S(=O)(=O)CCO)c2)c1,,inactive: -0.285%
CCOc1ccc(Oc2ccc(Cl)cc2N)cc1,,inconclusive: 31.3%
COc1ccc(NC(=O)CN(C)C(=O)c2cccc(S(=O)(=O)Nc3ccc(F)cc3)c2)cc1,"inconclusive: 0.0731 µM [activator, full curve, poor fit]",
O=C(Nc1ccc(N2CCN(C(=O)c3ccc(Cl)cc3)CC2)cc1)c1cccnc1,"inconclusive: 6.51 µM [rising, single point]",
COc1ccc(C(=O)COC(=O)C(CCSC)NC(=O)COc2ccccc2)c(OC)c1 (stereo not drawn),"inconclusive: 20.6 µM [falling, partial curve, poor fit]",
COC(=O)c1cccc(S(=O)(=O)N2CCCCC2)c1,,inconclusive: 13.6%
CC(=O)Nc1ccc(S(=O)(=O)N2CCC3(CC2)OCCO3)cc1,,inconclusive: 88.1%
COc1ccc(-c2nc3c(c(=O)c4ccccc4n3C)c(=O)n2Cc2ccccc2)cc1,"inconclusive: 20.6 µM [activator, partial curve]",
O=C(NCc1ccccc1)c1ccc(CS(=O)(=O)c2ccccc2)o1,"inconclusive: 0.0082 µM [activator, full curve, poor fit]",
CCOC(=O)C1CCN(c2c(NCCCN3CCN(Cc4ccccc4)CC3)c(=O)c2=O)CC1,,inconclusive: 37.1%
O=C(Cc1ccc(Br)cc1)Nc1ccc(S(=O)(=O)NCC2CCCO2)cc1 (stereo not drawn),,inconclusive: 13.1%
Cc1ccc(-n2nnnc2SCc2nnc(-c3ccccc3Br)o2)cc1,,inconclusive: 54.6%
O=C(Nc1ccon1)Nc1cc(Cl)ccc1Cl,,inconclusive: 3.25%
Fc1ccccc1NC(=S)N1CCCCC1,,inconclusive: -19.3%
O=C(COc1ccccc1Cl)N1CCN(C(=O)c2ccco2)CC1,,inconclusive: 28.9%
O=C(NCc1ccccc1)C(c1ccccc1)N(C(=O)c1csnn1)c1ccccc1 (stereo not drawn),"inconclusive: 29.1 µM [activator, single point]",
CCc1ccc(CN/C=C/C(=O)c2ccc(Br)cc2)cc1,"inconclusive: 29.1 µM [cytotoxic, single point]",
CCCCc1nc2cc(C(=O)NCCc3cnn(C)c3)ccc2o1,"inconclusive: 6.51 µM [falling, single point]",
CCOc1cc(/C=N/Nc2ccccc2Cl)ccc1OCC(=O)O,,inconclusive: -16.5%

# Sorted by SMILES length (ascending): 4 of the compounds above
SMILES,Potency,"lipid storage change, negative = inhibition"
O=C(Nc1ccon1)Nc1cc(Cl)ccc1Cl,,inconclusive: 3.25%
COc1ccc(C2=NOC(C(=O)Nc3cccnc3Cl)C2)cc1 (stereo not drawn),,inconclusive: 22.3% [at 9.22 µM]
Cc1ccc(-n2[nH]c(C)c(C=Nc3ccc(C)cn3)c2=O)cc1,,inconclusive: 24.1%
Nc1c(C(=O)CSc2n[nH]c(-c3ccccc3)n2)c(=O)[nH]c(=O)n1C1CC1,,inconclusive

# Continued.

SMILES,Potency,"lipid storage change, negative = inhibition"
Cc1ccc(-n2c(SCC(=O)O)nc3c(sc(=S)n3-c3ccc(C)c(C)c3)c2=O)cc1,,inconclusive: 74%
CCn1cc(/C=C(\NC(=O)c2cc(OC)c(OC)c(OC)c2)C(=O)N2CCN(C)CC2)c2ccccc21,"inconclusive: 1.84 µM [activator, partial curve]",
Cc1cc(OCC(=O)Nc2ccccn2)c2c(C)c(C)c(=O)oc2c1,active: 7.31 µM,
CC(NC(=O)c1ccccc1F)C1CC1 (stereo not drawn),"inconclusive: 1.16 µM [activator, single point]",
CC(=O)Nc1ccc(OC(=O)CC2SC(=O)NC2=O)cc1 (stereo not drawn),,inconclusive: -38%
Cc1ccc(CNC(=O)c2ccc(Cn3cc(-c4ccc(C)cc4)nc3-c3ccncc3)cc2)cc1,,inconclusive: -81.2%
Cc1cc(C)nc(Sc2ccc(/C=C(\C#N)C(N)=O)o2)n1,,inconclusive: 25.1%
COc1cccc(NC(=O)CCC2CCN(C(=O)c3scnc3C)CC2)c1,,inconclusive: -35.3%
CCSc1nnc(NC(=O)c2cc(C)nc3ccccc23)s1,,inconclusive: 6.27%
COc1ccc(NC(=O)c2ccc3c(c2)CCN3S(=O)(=O)c2ccccc2)cc1,"inconclusive: 14.6 µM [activator, partial curve]",
NC(=O)CC(NC(=O)Cc1ccc(Br)cc1)c1ccc(NCc2ccc(F)c(F)c2)c([N+](=O)[O-])c1 (stereo not drawn),,inconclusive: -26.1%
Cc1cccc(-c2c3c(=O)n(C)c(=O)n(C)c3c3cccnn23)c1,,inconclusive: 22.4%
Cc1ccc(-c2cc(C(=O)Nc3cccnc3)c3ccccc3n2)o1,,inconclusive: 1.24%
O=C(CCc1nc2sc3c(c2c(=O)[nH]1)CCCC3)NCCc1ccc(F)cc1,,inconclusive: 19%
COc1ccc2c(C)cc3nnnn3c2c1,,inconclusive: -1%
CC(=O)c1ccc(CCCC(=O)O)cc1,"inconclusive: 4.11 µM [falling, single point]",
O=C(CSc1nnc(-c2ccccc2)c(-c2ccccc2)n1)NCc1ccco1,,inconclusive: -10.7%
O=C(COC(=O)c1ncc(Cl)c(Cl)c1Cl)NC(=O)NCc1ccccc1,,inconclusive: 4.81%
c1ccc(Oc2cccc(OCCCCN3CCCC3)c2)cc1,,inconclusive: 9.46%
N#Cc1cnc(NOCc2ccc(Cl)cc2)nc1,,inconclusive: -27.9%
COc1ccc(/C=C/C(=O)OCC(=O)Nc2ccc(Cl)c(S(=O)(=O)N(C)C)c2)cc1OC,,inconclusive: 27.1%
COCCNC(=O)C(c1ccc(C)o1)N(C(=O)c1snc(C(N)=O)c1N)c1cccc(C)c1 (stereo not drawn),"inconclusive: 6.51 µM [activator, single point]",
COc1ccc(OC)c(NC(=O)c2cnn(-c3ccccc3Cl)c2NC(=O)c2ccco2)c1,"inconclusive: 16.4 µM [rising, single point]",
O=c1cc(O)c2sc3nc(-c4ccccc4)cc(C(F)(F)F)c3c2[nH]1,"inconclusive: 0.058 µM [falling, full curve, poor fit]",
CCOC(=O)c1c(CN(CC)CC)n(C)c2cc(Br)c(O)cc12,,inconclusive: 4.49%
CCN(CC(=O)Nc1c(F)cccc1F)C(=O)c1cc(C)nc2ccccc12,,inconclusive
